{"source": "patent US8058233B2", "about": "“Modification of feeding behavior using PYY and GLP-1” (Oregon Health and Science University, priority 2002, dated 2011)", "key": {"[1]": {"assay": "Food intake after injection into the paraventricular nucleus of fasted rats", "assay_type": "in vivo, rat", "details": "PVN injection 0.1 nmol; rats fasted for 24 hours; n=8"}, "[2]": {"assay": "Food intake after injection into the arcuate nucleus of fasted rats", "assay_type": "in vivo, rat", "details": "intra-arcuate 0.1 nmol; rats fasted for 24 hours; n=8"}, "[3]": {"test_system": "hypothalamic explants", "assay": "Hypothalamic explants: NPY and αMSH release by radioimmunoassay", "assay_type": "cell-based, rat", "details": "50 nM for 45 minutes"}, "[4]": {"test_system": "POMC neurons", "assay": "Whole cell patch clamp recordings from POMC neurons of Pomc-EGFP mice (Example 5)", "assay_type": "cell-based, mouse", "details": "PYY3-36 10 nM (FIG. 8a)"}}, "note": "Part of at least one peptide drawing is inferred or uncertain, most often the ends."}
{"substance": "Ac-LRHYLNLLTRQRY-NH2 (C-terminus assumed) [Y2A, N-acetyl (Leu^28, Leu^31) NPY (24-36)]", "values": [{"measurement": "food intake 2 hour post-injection", "setting": "[1]", "result": "8.0 ± 0.6", "unit": "g"}, {"measurement": "chow ingested 2 hours post-injection", "setting": "[2]", "result": "6.2 ± 0.5", "unit": "g"}, {"measurement": "α-MSH release from hypothalamic explants", "setting": "[3]", "result": "concomitant increase"}, {"measurement": "NPY release from hypothalamic explants", "setting": "[3]; FIG. 8d", "result": "significantly decreased"}, {"measurement": "depolarization of POMC neurons", "setting": "[4]", "result": "8.7±1.8", "unit": "mV"}]}
